Changes are numbered by the printed parent chain. These are yes or no findings as the source states them, for the method shown. In cells and extracts the contact can be indirect. Some entries that bind do so weakly or less than the wild type. Where a sequence is shown, tags or fusion partners need not be part of it.

Protein sequences, listed by entry. Tags and fused reporters are not part of them.
UniProt Q9NVI1: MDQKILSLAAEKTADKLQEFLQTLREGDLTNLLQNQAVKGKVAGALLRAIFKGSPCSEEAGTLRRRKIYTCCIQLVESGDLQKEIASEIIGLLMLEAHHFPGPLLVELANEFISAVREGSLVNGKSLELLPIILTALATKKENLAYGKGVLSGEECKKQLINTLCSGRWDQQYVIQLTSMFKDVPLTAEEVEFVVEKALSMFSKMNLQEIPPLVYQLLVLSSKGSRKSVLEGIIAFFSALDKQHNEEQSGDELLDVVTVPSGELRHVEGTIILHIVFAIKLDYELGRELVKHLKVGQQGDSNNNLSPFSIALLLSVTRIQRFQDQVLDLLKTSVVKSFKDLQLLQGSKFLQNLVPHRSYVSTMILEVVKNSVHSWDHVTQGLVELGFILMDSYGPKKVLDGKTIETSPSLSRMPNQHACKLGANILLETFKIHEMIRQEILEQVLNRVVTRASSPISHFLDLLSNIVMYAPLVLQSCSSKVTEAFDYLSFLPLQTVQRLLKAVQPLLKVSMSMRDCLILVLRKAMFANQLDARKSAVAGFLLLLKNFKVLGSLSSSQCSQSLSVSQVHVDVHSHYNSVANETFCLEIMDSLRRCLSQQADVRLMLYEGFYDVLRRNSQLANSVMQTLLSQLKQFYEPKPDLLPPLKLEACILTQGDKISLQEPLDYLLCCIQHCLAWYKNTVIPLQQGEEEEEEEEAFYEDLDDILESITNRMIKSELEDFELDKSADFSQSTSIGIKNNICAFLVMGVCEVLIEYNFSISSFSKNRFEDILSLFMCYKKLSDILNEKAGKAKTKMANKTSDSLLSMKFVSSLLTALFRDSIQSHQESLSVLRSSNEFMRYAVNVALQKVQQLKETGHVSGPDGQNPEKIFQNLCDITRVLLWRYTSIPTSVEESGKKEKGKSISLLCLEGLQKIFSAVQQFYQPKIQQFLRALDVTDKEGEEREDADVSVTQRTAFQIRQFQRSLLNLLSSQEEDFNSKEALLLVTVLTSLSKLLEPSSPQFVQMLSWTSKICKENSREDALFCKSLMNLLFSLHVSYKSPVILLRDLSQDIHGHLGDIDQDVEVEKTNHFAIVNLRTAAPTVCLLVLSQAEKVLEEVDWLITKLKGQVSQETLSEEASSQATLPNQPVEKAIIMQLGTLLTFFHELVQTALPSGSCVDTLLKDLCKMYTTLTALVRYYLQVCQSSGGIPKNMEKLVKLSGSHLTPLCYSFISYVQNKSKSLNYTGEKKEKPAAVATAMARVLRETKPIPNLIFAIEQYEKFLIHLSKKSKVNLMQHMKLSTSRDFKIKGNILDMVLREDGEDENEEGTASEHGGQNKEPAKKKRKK
UniProt Q9BXW9: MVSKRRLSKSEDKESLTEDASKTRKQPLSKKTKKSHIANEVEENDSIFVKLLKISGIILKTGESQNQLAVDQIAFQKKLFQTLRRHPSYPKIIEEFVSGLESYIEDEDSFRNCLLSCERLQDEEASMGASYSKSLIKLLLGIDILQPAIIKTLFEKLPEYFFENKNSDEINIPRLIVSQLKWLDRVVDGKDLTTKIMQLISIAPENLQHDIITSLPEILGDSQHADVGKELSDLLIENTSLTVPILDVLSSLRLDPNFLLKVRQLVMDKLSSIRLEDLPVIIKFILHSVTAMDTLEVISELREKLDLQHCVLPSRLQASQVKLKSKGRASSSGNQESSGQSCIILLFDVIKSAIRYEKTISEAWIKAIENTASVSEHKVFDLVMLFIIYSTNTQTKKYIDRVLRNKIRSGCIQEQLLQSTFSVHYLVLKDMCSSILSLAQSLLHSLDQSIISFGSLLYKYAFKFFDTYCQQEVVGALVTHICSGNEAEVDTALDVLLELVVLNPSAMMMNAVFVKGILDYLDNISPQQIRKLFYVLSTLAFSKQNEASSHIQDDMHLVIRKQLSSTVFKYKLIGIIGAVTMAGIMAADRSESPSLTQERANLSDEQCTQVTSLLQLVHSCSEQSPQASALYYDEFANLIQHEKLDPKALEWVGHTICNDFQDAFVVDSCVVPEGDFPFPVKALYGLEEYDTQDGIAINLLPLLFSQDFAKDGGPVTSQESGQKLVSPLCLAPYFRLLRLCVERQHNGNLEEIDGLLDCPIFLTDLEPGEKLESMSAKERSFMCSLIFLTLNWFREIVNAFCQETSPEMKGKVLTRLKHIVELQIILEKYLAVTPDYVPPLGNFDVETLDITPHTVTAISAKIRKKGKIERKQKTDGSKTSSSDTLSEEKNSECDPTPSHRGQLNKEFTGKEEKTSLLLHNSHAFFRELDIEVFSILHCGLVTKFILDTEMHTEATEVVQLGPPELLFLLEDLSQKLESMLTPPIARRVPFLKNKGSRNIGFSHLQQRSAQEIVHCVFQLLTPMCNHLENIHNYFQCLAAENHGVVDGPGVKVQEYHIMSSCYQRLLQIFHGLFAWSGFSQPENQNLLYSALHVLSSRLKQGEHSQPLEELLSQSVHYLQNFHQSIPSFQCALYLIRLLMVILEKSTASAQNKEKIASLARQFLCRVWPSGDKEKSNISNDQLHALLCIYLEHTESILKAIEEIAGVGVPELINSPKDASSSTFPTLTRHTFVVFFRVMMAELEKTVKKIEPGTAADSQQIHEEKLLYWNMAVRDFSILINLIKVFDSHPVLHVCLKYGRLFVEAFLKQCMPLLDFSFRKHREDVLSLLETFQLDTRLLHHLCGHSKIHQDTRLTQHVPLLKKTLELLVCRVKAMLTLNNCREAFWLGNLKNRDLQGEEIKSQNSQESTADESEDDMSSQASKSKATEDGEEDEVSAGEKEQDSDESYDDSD

Assay [1] concerns the target T1, GFP-PolK UBZ mutant (double ubiquitin-binding domain mutant, D644A/D799A) (human) (UniProt Q9UBT6).
T1 sequence: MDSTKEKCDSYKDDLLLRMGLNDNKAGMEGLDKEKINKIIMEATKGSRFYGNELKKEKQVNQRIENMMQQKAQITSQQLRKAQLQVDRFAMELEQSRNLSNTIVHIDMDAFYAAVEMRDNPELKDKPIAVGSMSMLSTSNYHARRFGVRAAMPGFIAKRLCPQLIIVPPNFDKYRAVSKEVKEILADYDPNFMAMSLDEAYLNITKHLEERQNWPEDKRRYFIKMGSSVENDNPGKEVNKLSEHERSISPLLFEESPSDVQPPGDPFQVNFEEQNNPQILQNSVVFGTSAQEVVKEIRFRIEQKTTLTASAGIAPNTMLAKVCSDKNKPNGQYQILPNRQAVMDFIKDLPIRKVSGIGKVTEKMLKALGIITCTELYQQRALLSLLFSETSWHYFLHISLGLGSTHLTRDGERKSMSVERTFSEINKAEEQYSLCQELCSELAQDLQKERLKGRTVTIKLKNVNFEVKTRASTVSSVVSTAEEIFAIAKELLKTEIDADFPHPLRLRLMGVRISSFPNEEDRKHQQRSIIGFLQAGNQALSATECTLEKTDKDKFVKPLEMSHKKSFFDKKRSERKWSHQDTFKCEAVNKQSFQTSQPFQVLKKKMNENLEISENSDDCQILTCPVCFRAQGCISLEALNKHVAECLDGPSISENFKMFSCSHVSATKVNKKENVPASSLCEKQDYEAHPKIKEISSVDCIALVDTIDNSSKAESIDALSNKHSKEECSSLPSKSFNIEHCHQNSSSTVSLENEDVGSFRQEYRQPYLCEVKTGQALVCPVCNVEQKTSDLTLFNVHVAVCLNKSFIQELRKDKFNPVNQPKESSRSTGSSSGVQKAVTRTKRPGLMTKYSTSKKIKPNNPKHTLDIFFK
Nature of the assay: cross-linking + co-IP; 293T sgPolK cells expressing GFP-PolK WT or UBZ mutant, with or without HU (2 mM, 4 hr); 1% formaldehyde crosslinking 10 min, lysis in 0.3% SDS, sonication, dilution 1:8; pulldown with anti-GFP agarose beads overnight at 4°C; Western blot.

Assay [2] addresses T2, GFP-tagged PolK wild-type (translesion DNA polymerase kappa) (human) (UniProt Q9UBT6).
T2 sequence: T1 sequence with A644D, A799D
The description is as above.

With FANCI (from UniProt Q9NVI1 1-1328), the binding result in assay [1] and in assay [2] was “binds” in each case.

Regarding FANCD2 (from UniProt Q9BXW9 1-1451), the binding entry in assay [1] and in assay [2] was “binds” throughout.

The values are drawn from article PMC6251625.
